These results are taken from publication PMC3650004.

Amino acid sequences for entries named in this document (tags omitted).
UniProt P13010: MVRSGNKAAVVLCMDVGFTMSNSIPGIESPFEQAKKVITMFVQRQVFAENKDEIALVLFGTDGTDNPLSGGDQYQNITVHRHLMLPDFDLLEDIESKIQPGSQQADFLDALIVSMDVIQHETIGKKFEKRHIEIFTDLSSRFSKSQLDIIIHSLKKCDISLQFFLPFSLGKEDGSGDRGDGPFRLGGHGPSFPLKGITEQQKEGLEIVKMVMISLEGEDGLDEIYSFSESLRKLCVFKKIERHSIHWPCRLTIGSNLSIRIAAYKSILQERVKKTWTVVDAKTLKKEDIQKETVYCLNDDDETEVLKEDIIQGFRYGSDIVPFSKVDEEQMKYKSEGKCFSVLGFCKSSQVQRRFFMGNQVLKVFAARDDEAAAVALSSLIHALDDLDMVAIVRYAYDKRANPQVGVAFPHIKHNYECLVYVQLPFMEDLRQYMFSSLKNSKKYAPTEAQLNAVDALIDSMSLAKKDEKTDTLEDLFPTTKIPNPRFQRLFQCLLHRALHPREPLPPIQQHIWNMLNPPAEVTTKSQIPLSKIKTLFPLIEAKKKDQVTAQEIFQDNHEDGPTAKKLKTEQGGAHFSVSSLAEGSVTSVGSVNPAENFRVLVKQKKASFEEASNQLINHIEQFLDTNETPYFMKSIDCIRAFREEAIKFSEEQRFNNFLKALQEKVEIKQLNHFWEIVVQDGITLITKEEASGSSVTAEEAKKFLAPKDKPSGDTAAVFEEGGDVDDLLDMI
UniProt P12956: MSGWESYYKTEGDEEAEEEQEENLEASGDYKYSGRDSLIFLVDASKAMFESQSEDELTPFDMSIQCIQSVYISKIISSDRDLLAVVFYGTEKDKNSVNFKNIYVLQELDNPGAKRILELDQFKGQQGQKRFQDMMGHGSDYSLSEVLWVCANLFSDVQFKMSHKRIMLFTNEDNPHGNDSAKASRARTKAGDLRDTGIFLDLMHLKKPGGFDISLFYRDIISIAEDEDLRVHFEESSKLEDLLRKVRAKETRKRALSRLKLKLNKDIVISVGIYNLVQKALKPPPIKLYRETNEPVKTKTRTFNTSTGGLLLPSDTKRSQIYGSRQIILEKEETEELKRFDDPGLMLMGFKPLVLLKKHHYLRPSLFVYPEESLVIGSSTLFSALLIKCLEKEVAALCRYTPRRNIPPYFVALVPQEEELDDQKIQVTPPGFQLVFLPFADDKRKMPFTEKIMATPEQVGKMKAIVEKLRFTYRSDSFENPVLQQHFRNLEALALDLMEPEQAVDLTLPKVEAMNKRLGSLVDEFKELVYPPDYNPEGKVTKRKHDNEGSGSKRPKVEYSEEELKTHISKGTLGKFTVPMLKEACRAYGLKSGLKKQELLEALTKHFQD
UniProt Q9Y5B9: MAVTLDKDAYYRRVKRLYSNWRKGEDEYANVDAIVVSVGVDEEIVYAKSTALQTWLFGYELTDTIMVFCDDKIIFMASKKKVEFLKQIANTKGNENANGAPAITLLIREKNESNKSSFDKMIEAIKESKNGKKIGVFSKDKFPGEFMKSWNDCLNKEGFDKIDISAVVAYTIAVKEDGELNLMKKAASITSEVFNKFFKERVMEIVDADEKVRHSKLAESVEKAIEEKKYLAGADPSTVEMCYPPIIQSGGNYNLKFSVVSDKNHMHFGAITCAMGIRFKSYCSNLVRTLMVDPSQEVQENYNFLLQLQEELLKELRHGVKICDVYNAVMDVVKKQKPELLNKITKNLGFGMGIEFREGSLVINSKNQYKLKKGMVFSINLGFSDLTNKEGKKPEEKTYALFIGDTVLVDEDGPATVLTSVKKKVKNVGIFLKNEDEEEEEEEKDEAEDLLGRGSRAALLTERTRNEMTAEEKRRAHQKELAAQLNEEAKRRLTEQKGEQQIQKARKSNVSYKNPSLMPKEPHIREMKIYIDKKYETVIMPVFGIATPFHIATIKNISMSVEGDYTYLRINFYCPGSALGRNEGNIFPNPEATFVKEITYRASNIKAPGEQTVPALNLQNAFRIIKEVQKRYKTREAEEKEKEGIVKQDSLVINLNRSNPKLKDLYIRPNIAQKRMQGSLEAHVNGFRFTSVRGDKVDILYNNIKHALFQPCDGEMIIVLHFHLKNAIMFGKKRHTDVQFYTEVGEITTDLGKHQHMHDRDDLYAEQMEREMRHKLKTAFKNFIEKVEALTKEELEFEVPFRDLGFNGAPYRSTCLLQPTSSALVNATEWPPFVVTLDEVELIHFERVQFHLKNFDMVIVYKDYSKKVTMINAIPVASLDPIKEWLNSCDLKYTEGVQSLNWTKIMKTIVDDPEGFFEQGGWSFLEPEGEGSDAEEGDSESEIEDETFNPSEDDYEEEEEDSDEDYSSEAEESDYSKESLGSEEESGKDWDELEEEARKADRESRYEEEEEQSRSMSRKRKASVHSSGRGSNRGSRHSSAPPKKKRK

This test addresses T1, SMARCAL1 (endogenous) (human (endogenous in HeLa)) (UniProt Q9NZC9).
T1 sequence: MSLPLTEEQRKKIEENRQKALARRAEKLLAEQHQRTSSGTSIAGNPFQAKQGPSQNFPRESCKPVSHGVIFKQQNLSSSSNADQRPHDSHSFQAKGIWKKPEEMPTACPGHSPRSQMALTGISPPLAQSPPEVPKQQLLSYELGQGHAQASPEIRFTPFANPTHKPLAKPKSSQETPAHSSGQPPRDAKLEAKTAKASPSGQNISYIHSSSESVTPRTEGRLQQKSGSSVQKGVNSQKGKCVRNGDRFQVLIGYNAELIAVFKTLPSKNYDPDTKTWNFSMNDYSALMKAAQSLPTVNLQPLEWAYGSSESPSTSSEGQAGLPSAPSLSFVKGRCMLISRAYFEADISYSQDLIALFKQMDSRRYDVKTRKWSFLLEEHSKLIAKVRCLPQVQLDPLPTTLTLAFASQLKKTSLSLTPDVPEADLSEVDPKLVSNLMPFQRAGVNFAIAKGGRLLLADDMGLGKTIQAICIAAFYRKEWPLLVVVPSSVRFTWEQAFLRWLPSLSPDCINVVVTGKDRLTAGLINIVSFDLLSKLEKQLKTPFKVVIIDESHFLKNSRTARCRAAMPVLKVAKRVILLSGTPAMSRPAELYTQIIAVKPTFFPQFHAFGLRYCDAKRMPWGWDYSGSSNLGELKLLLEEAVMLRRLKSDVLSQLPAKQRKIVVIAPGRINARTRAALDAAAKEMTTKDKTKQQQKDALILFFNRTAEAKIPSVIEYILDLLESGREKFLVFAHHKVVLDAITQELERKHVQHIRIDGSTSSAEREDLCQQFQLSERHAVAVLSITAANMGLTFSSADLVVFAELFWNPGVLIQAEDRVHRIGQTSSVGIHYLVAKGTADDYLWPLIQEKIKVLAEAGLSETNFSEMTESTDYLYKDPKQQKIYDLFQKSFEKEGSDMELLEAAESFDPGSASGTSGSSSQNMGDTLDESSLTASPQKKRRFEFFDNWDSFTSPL
The test can be described thus: affinity purification with mass spectrometry; SMARCAL1 immunopurified from HeLa cell extracts with antibody 909 (peptide elution), and Flag(-HA)-SMARCAL1 purified from HEK293T cells; untreated or 2 mM HU for 16 h; 2D-LC tandem mass spectrometry; the text names the hits of both purifications ….

No constants are given. Whether binding was seen depends on the method and setting. Binding seen in cells or lysates may run through a third protein. These calls come from enrichment with a bait or labelling near it, and not all partners need be listed.

Regarding “KU80 (endogenous) (from UniProt P13010 1-732)”, the binding result is on record as “binds”.

“KU70 (endogenous) (from UniProt P12956 1-609)”: the binding result is “binds”.

As to “SPT16 (endogenous) (from UniProt Q9Y5B9 1-1047)”, the binding result is reported as “binds”.
